Assay results from article PMC12661054, “The CIP2A-TOPBP1 axis facilitates mitotic DNA repair via MiDAS and MMEJ” (Nature Communications, 2025).
Results are given in words; binding and its absence hold for the method and conditions named. For some assays here: In cells and extracts the contact can be indirect. Some binding calls cover weakened binding; strength is not graded here.

By UniProt entry, the sequences of proteins in these tests, tags left out. Where a name states a change or a piece, a line headed by the entry shows the natural chain unless it says otherwise. Chains listed by the source or under a name are the forms on record and can include a tag or linker.
UniProt Q92547: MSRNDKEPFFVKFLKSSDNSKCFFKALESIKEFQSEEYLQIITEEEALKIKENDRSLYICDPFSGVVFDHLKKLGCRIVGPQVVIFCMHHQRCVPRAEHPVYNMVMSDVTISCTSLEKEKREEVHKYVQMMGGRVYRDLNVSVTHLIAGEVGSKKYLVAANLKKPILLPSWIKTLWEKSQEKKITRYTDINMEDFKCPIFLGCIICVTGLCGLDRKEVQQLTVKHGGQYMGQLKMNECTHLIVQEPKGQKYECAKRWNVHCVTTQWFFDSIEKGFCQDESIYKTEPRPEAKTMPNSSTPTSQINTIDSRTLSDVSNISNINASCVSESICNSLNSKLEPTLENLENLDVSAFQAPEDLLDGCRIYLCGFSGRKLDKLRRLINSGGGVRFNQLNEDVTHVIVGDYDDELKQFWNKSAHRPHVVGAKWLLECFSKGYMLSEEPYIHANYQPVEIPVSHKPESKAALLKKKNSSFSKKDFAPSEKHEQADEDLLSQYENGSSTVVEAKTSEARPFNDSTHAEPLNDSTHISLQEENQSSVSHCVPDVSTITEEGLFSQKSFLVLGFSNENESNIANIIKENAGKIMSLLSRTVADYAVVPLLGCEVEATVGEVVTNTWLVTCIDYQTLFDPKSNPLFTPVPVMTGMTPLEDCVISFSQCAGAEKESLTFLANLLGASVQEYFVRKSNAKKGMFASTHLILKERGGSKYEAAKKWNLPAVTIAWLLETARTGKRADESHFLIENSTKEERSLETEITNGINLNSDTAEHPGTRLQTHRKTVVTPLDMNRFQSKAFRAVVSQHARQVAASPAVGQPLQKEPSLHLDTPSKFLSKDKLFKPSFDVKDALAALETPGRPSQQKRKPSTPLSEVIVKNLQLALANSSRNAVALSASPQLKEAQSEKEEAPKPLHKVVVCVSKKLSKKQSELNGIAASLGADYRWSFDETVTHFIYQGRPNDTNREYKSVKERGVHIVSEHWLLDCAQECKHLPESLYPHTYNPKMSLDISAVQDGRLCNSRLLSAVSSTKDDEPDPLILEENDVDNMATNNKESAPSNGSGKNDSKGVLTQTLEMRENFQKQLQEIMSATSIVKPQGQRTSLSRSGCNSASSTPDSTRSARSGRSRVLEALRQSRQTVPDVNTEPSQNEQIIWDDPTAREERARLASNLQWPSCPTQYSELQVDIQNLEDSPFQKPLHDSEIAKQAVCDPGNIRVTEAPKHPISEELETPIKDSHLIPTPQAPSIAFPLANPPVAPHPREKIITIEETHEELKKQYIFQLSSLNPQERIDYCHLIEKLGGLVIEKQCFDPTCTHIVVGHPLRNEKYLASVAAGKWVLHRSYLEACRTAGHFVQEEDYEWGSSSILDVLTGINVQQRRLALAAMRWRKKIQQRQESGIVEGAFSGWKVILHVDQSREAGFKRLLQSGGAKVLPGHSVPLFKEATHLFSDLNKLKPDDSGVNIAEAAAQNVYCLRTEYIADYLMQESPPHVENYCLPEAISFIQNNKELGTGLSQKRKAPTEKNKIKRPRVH
GST-TOPBP1(BRCT0-2 1-290) K155E (Q92547, form named): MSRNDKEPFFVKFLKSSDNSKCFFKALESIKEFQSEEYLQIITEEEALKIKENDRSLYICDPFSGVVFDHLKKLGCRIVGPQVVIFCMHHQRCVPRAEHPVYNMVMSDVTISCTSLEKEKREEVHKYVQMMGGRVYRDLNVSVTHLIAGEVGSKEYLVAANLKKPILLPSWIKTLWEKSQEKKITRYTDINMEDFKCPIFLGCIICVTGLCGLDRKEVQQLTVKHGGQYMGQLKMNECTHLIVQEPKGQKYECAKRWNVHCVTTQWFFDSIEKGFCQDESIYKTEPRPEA
GST-TOPBP1(BRCT0-2 1-290) K155E/K250E (Q92547, form named): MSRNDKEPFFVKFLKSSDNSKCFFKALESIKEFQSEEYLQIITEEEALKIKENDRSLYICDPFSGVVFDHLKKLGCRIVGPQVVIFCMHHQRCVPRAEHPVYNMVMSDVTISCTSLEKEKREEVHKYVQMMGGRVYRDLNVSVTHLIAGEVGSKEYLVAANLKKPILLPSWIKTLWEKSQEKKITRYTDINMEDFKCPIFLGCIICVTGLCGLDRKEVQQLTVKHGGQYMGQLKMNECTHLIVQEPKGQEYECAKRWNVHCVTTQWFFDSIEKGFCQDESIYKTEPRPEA
UniProt P54132: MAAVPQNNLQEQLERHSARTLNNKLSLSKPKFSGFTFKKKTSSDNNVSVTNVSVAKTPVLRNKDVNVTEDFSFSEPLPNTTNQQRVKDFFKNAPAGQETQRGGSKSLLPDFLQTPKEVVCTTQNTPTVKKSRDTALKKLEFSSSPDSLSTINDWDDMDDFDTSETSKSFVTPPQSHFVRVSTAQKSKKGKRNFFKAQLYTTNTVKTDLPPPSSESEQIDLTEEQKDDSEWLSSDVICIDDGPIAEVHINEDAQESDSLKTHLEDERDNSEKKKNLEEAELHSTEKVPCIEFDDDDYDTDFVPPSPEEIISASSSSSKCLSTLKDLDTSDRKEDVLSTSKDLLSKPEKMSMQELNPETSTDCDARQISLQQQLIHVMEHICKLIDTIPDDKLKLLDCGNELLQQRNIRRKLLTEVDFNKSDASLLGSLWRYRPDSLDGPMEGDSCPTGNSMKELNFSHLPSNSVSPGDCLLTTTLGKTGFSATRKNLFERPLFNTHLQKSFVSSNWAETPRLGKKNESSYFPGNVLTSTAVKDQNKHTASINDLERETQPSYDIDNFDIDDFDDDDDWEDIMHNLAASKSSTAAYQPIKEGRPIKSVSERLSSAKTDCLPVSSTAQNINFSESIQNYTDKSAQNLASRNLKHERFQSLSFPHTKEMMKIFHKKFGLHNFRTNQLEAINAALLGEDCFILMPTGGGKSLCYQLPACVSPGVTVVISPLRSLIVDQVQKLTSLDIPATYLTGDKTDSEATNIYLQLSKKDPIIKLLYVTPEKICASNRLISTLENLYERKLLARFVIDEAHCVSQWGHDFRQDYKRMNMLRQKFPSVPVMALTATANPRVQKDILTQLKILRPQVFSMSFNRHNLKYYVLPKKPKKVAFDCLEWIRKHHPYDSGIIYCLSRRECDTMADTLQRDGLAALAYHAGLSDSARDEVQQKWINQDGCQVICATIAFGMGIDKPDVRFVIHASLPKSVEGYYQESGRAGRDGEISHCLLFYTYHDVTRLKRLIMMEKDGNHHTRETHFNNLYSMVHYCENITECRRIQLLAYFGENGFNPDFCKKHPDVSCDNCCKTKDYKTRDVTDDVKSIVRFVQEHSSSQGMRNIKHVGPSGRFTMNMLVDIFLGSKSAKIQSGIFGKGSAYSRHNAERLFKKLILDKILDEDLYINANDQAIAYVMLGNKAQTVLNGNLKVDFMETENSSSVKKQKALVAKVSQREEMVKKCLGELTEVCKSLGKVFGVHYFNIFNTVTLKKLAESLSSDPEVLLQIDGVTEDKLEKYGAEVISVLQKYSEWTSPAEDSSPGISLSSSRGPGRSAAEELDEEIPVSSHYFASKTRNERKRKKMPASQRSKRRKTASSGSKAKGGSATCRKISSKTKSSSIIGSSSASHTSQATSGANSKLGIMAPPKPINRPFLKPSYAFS
UniProt Q8IY92: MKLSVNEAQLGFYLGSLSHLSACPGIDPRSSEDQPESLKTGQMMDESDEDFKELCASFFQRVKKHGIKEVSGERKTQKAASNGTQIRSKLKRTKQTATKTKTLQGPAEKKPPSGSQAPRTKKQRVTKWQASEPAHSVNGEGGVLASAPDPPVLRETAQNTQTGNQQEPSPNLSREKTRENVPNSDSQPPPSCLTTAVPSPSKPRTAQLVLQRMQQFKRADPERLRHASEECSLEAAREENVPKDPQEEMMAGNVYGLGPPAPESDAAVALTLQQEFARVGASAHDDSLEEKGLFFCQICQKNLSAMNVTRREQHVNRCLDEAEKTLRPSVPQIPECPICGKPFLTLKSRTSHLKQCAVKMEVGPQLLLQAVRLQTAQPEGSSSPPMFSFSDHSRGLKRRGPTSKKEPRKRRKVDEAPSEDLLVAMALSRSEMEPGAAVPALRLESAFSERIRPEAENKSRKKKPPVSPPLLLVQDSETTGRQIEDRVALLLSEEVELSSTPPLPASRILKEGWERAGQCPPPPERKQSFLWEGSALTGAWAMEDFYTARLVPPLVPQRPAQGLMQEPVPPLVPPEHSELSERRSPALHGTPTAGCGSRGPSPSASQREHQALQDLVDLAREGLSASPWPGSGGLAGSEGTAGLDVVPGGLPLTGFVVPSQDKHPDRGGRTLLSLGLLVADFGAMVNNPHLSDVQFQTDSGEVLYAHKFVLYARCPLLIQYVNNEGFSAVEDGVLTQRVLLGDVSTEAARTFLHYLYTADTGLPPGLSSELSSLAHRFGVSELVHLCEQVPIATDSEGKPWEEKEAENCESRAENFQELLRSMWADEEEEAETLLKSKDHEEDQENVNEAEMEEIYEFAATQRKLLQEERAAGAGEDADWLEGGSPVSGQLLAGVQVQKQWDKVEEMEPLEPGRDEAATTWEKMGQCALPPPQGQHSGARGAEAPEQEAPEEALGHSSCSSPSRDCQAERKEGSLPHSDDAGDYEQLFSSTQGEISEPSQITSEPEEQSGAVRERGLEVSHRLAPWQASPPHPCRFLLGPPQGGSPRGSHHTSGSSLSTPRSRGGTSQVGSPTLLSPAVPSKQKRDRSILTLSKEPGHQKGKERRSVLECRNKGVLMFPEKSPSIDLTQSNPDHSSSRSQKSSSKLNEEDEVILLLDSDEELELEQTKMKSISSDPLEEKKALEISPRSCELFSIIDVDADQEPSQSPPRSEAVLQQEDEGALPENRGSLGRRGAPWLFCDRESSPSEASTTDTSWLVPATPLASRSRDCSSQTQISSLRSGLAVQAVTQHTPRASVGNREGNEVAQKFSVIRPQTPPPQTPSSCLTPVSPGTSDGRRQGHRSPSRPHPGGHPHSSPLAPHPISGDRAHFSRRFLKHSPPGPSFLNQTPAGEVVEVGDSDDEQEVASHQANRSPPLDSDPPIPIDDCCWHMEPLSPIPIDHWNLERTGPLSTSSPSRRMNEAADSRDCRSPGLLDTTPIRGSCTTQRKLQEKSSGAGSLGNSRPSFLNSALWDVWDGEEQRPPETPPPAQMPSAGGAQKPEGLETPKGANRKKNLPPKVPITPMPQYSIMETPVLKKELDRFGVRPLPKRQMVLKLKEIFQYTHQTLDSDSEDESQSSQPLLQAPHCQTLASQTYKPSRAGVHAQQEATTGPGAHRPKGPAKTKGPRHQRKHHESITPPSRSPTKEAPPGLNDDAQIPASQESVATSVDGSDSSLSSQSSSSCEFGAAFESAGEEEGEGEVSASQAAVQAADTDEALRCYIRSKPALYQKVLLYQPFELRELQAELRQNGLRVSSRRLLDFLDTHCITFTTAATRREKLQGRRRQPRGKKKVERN

Key:
eGFP-TOPBP1 WT (human) [1] = target: eGFP-TOPBP1 WT (human) (UniProt Q92547); experiment: co-IP; GFP-Trap agarose from benzonase-treated whole-cell lysates of transfected HEK293TN cells (nocodazole 100 ng/ml 18 h; in some panels asynchronous cells or 7 µM RO-3306 for 30 min); 200 mM NaCl, 0.2% Igepal, pH 7.5, 4 °C; western blot
Flu-SLX4_pT1260 (human) [2] = target: T1, Flu-SLX4_pT1260 (human); experiment: fluorescence polarisation; 100 nM fluorescein-labelled SLX4 peptide, increasing concentrations of TOPBP1 BRCT fragment; room temperature; 25 mM HEPES pH 7.5, 150 mM NaCl, 1 mM EDTA, 0.25 mM TCEP, 0.002% Tween 20; single site with non-specific component; both purified
T1 sequence (peptide, fluorescein ('Flu') on the N-terminus; phosphothreonine at Thr1260): GYGTSWLVPATPLASRSR

Flu-SLX4_pT1260 (human) [3] = target: T1, Flu-SLX4_pT1260 (human); experiment: condition: only after treatment of the peptide with lambda phosphatase; fluorescence polarisation; 100 nM fluorescein-labelled SLX4 peptide, increasing concentrations of TOPBP1 BRCT fragment; room temperature; 25 mM HEPES pH 7.5, 150 mM NaCl, 1 mM EDTA, 0.25 mM TCEP, 0.002% Tween 20; single site with non-specific component; both purified
Flu-SLX4_pT1476 (human) = target: T2, Flu-SLX4_pT1476 (human); experiment: fluorescence polarisation; 100 nM fluorescein-labelled SLX4 peptide, increasing concentrations of TOPBP1 BRCT fragment; room temperature; 25 mM HEPES pH 7.5, 150 mM NaCl, 1 mM EDTA, 0.25 mM TCEP, 0.002% Tween 20; single site with non-specific component; both purified
T2 sequence (peptide, fluorescein ('Flu') on the N-terminus; phosphothreonine at Thr1476): GYGSPGLLDTTPIRGSCT

eGFP-TOPBP1 WT (human) [4] = target: eGFP-TOPBP1 WT (human) (UniProt Q92547); experiment: co-IP; GFP-Trap co-IP from the chromatin fraction of transfected HEK293TN cells treated with 100 ng/ml nocodazole for 18 h; western blot
[5] = target: eGFP-TOPBP1 1 + 2 (K155E + K250E) (human) (UniProt Q92547); experiment: as above

Substance	binding (eGFP-TOPBP1 WT (human) [1])	binding (Flu-SLX4_pT1260 (human) [2])	also measured
BLM (endogenous) (from UniProt P54132 1-1417)	binds		
GST-TOPBP1(BRCT0-2 1-290) WT (from UniProt Q92547 1-290) (domain or fragment)			binding (Flu-SLX4_pT1260 (human) [3]): no binding; binding (Flu-SLX4_pT1476 (human)): no binding
SLX4 (endogenous) (from UniProt Q8IY92 1-1834)	binds		binding (eGFP-TOPBP1 WT (human) [4]): binds; binding [5]: binds

The next lines start with results.

binding (eGFP-TOPBP1 WT (human) [1])	binding (Flu-SLX4_pT1260 (human) [2])	Substance	also measured
	no binding	GST-TOPBP1(BRCT0-2 1-290) K155E (from UniProt Q92547 1-290) (domain or fragment)	
	no binding	GST-TOPBP1(BRCT0-2 1-290) K155E/K250E (from UniProt Q92547 1-290) (domain or fragment)	
